Drawing on paper PMC11110763, “Carltonine-derived compounds for targeted butyrylcholinesterase inhibition” (RSC Medicinal Chemistry, 2024), this text covers microsomal CLint for one molecule.

One may read the microsomal CLint as the capacity of the preparation to metabolise the compound, expressed as a volume cleared per time. The low end stands for slow turnover, the high end for rapid turnover.

SMILES strings stand for the structures.

The data set can be described thus: Human liver microsomal (HLM) stability. Particulars: microsomes, pH 7.4.

As for `CN1C(=O)CN=C(c2ccccc2)c2cc(Cl)ccc21` [Diazepam, reference compound], the microsomal CLint at 0.75 h, 3 µM is 4.6 µL/min/mg.
